Test results: PubChem BioAssay AID2417 (National Center for Advancing Translational Sciences (NCATS), 2010)
The campaign covered roughly 140,000 compounds. About 4,300 (3.1%) were called active. This list was built around the results that the source calls inconclusive (neither active nor inactive); the mix of calls is not that of the screen.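 The calls were made as follows: active = readout at or below -70, meaning at least 70% loss of cells showing the perinucleolar compartment, a nuclear body marking cancer cells; inconclusive = readout between -30 and a set limit; inactive = the rest.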

Experiment: High Content Assay for Compounds that inhibit the Assembly of the Perinucleolar Compartment;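 also: plate controls were DMSO wells for no effect and camptothecin positive control wells for full effect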
Conditions: PC3M PTB-GFP, PNC prevalence imaging, 16 h; at 10 µM; hits give low values
Outline: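 PC3M cells stably expressing PTB-GFP, 750–1000 cells/well, treated 16 h at 37 °C with compound (23 nl of library stock), in duplicate. After paraformaldehyde fixation and Hoechst stain, imaged at 20x; PNC prevalence scored by image analysis.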

SMILES | activity change (PNC), negative = inhibition
CC(=O)NS(=O)(=O)c1ccc(NC(=O)c2cc(-c3ccc(C)cc3)nc3ccccc23)cc1 | inconclusive: -53.3%
CCC(=O)NC(=S)Nc1ccccc1OC | inconclusive: -30.5%
CC(=O)Oc1ccccc1C1OCCN1C(C)=O (configuration not stated) | inconclusive: -63.8%
CC1(C)OC(=O)N(c2cccnc2)C1(C)O (configuration not stated) | inconclusive: -36.4%
CCN1CCN(C(c2cccs2)C(C)NC(=O)c2cccc(OC)c2OC)CC1 (configuration not stated) | inconclusive: -43.7%
CCOc1ccc(C(c2c(NC(=O)c3ccccc3)sc(C)c2C)N2CCN(C)CC2)cc1 (configuration not stated) | active: -80.7%
O=C(CN1CCN(S(=O)(=O)c2ccc(F)cc2)CC1)Nc1cccc(C(F)(F)F)c1 | inconclusive: -50.9%
O=S(=O)(c1cccs1)N1CCN(CC(O)COC2CCCc3ccccc32)CC1 (configuration not stated) | inactive: 8.54%
Cc1[nH]nc2c1C(c1ccccc1F)CC(=O)N2 (configuration not stated) | active: -106%
O=C(N=Nc1c(O)[nH]c2ccccc12)c1ccccc1NS(=O)(=O)c1cccs1 | inconclusive: -41.2%
CCCCCCC(=O)N/N=C/c1ccc(Br)cc1 | inconclusive: -32.9%
Cc1ccc(C)c(OCCn2c(=O)c3c(ncn3C3CCCC3)n(Cc3ccccc3)c2=O)c1 | active: -119%
CN(c1ccc(C(=O)N2CCCCC2)cc1)S(C)(=O)=O | inactive: -28.7%
O=C(/C=N/O)Nc1cccnc1 | active: -100%
Cc1c(N2C(=O)C(C)SC23C(=O)Nc2ccccc23)c(=O)n(-c2ccccc2)n1C (configuration not stated) | inconclusive: -73.2%
Cc1nc2ccc3nc(NC(=O)C4COc5ccccc5O4)sc3c2s1 (configuration not stated) | inconclusive: -60.1%
COc1ccccc1-c1noc(-c2ccncc2)n1 | inconclusive: -33.9%
Cc1ccc(N(CC(=O)O)S(C)(=O)=O)cc1Cl | inconclusive: -35.6%
COc1ccc(CNn2c(C)nc3ccccc3c2=O)cc1 | inconclusive: -36.9%
O=C(c1ccc(Cn2cc(Cl)cn2)o1)N1CCN(Cc2ccc3c(c2)OCO3)CC1 | active: -107%
O=C(NCCN1CCN(c2ccccc2)CC1)C1CCN(S(=O)(=O)N2CCOCC2)CC1 | inactive: 55.2%
O=C(COc1ccccc1Cl)Nn1cnnc1 | inconclusive: -32%
COc1ccccc1CNC(=O)c1ccccc1OC | inconclusive: -51.8%

SMILES | activity change (PNC), negative = inhibition
O=c1[nH]c(=O)n(CCc2ccc(F)cc2)c(O)c1C=NCc1ccc2c(c1)OCO2 | inconclusive: -36.4%
COc1ccccc1NC(=O)C1=C(C)Nc2nc(-c3cccs3)nn2C1c1cccc(O)c1 (configuration not stated) | inconclusive: -40.1%
COc1ccc(-c2nnn(CC(=O)N(C3CCCC3)C(C)C(=O)NC3CCCC3)n2)cc1OC (configuration not stated) | inconclusive: -45.2%
CC(=O)Nc1ccc(-c2cc(NC(C)=O)n(-c3ccccc3)n2)cc1 | inactive: 4.18%
CN(C)c1cccc(C(=O)OCC(=O)Nc2ccccc2Sc2ccccc2)c1 | inconclusive: -57.3%
CS(=O)(=O)N1CCN(c2ccccc2NC(=O)C(c2ccccc2)c2ccccc2)CC1 | inconclusive: -51.9%
O=c1cc(CN2CCN(c3ccccc3F)CC2)c2cc3c(cc2o1)CCCC3 | inactive: 12.2%
S=c1[nH]ncn1/N=C/c1ccc(Br)cc1 | inactive: -2.26%
COCc1[nH]nc2c1C(c1ccccc1OC)C(C#N)=C(N)O2 (configuration not stated) | inconclusive: -38.6%
Cc1ccc(-n2c(Cc3ccccc3)n[nH]c2=S)cc1 | inactive: 0.383%
N#Cc1c(C(F)(F)F)cc(-c2ccccc2)nc1SCC(=O)N1CCOCC1 | inconclusive: -46.8%
CC1(C)CC(=O)C(=CN2CCN(C(=O)c3ccco3)CC2)C(=O)C1 | inconclusive: -42.3%
O=C1Nc2ccccc2Oc2cc([N+](=O)[O-])cc(Oc3ccccc3)c21 | inactive: 13.9%
O=C(NCN1CCCCC1)c1cccnc1 | inconclusive: -61.1%
Cc1ccc(SCCNC(=O)c2ccc(C)c(S(=O)(=O)Nc3ccccc3C)c2)cc1 | inactive: 14.7%
Cc1ccc(C2C3=C(CC(C)(C)CC3=O)Nc3[nH]c(=S)[nH]c(=O)c32)cc1 (configuration not stated) | inconclusive: -70.5%
CCCSc1nsc(N)n1 | inconclusive: -41%
O=[N+]([O-])c1ccc(COc2cccc(CNc3ccc(F)cc3)c2)cc1 | inconclusive: -58.7%
CCN(CC)c1ccc(/C=N/N2CCN(Cc3ccc(C)cc3)CC2)c(O)c1 | inconclusive: -43.6%
Cc1onc(-c2ccccc2Cl)c1C(=O)OCC(=O)c1ccc2c(c1)OCCO2 | inconclusive: -33.8%
CCN(CC(=O)N1CCN(C)CC1)S(=O)(=O)c1ccc(Cl)cc1 | active: -107%
Cc1cc(NS(=O)(=O)c2ccc(NC(=O)CN3C(=O)c4ccccc4C3=O)cc2)nc(C)n1 | inactive: 1.43%
CC1CN(Cc2nc3c(c(=O)n(C)c(=O)n3C)n2CC(=O)c2ccccc2)CC(C)O1 (configuration not stated) | inconclusive: -32.8%

SMILES | activity change (PNC), negative = inhibition
Cc1cccc(C(=O)N[C@H](C(=O)Nc2cc(S(=O)(=O)N3CCCCC3)ccc2C)C(C)C)c1 | inconclusive: -77.9%
Cc1c(NC(=O)C2CCCO2)cccc1[N+](=O)[O-] (configuration not stated) | active: -85.1%
CCOC(=O)c1nn(-c2cccc(OC)c2)c2nc(CC)c(C#N)c(=O)n12 | active: -109%
CCN(NC(=O)C(O)(c1ccccc1)c1ccccc1)C(=O)c1ccccc1 | inconclusive: -61.6%
CCOC(=O)c1c(C#N)c(SCC(=O)Nc2ccc(OC)cc2)nc2c1CN(CC)CC2 | inactive: -12.9%
CCn1cc(C(=O)Nc2ccc(F)c(F)c2)cn1 | inactive: -13.6%
N/C(=N\OC(=O)CCc1ccccc1)c1ccc(Cl)cc1 | inconclusive: -43.6%
C=CCOc1c(Br)cc(/C=N/n2c(CC)n[nH]c2=S)cc1Br | inactive: -23.7%
O=C(O)/C(=C\c1ccco1)NC(=O)c1cccc2ccccc12 | inactive: 50.7%
O=C(CSc1nnc(-c2cccnc2)n1Cc1ccco1)c1ccc(Br)cc1 | inconclusive: -40.6%
Cn1cnnc1SC1CCCCC1NS(=O)(=O)c1ccccc1 (configuration not stated) | inconclusive: -42.9%
O=C(CN1CCCCCC1)N1c2ccccc2C=Cc2ccccc21 | active: -106%
COc1ccc(CCNC(=O)c2cc(=O)[nH]c3ccc(Br)cc23)cc1OC | active: -113%
Cc1ccc(NC(=O)Nc2ccc(F)cc2)nc1 | inconclusive: -48.9%
CCOc1ccc(CNC(=O)c2ccc(Sc3ccc(C)cc3)c(NC(C)=O)c2)cc1 | inconclusive: -71.6%
CCOc1ccc(C(C)=O)cc1CSc1nnc(-c2ccoc2C)n1N | inconclusive: -38%
CCN(CC)C(=S)NC(=O)c1ccc(Cl)cc1Cl | inconclusive: -36.9%
NC(=O)CCS(=O)(=O)CCN1CCCCC1 | inconclusive: -59.4%
COc1ccc(-n2cnc3cc(NCc4cccs4)ccc32)cc1 | inconclusive: -39.1%
Cc1ccc(C)c(NC(=O)Cn2c([N+](=O)[O-])cnc2C)c1 | inconclusive: -34.3%
CCNc1nc(Oc2ccc(C(=O)OCC)cc2)nc(SC)n1 | inconclusive: -31%
COC(=O)c1cn[nH]c1NC(=S)Nc1ccc(Cl)c(Cl)c1 | inconclusive: -38.9%
O=C(CC12CCC(CC1)C2)NCc1ccc2c(c1)OCO2 | inactive: -0.54%

SMILES | activity change (PNC), negative = inhibition
CCNc1nc(NCC)n2c(SCc3nc4ccccc4c(=O)[nH]3)nnc2n1 | inconclusive: -39.4%
COc1ccc(NC(=O)CN2CCN(c3ccccc3F)CC2)cc1 | inconclusive: -37.4%
COC(=O)c1cnn(-c2nc(OC)cc(OC)n2)c1C | inconclusive: -38.1%
CC1CCc2ccc(F)cc2N1S(=O)(=O)c1cccs1 (configuration not stated) | inconclusive: -42.7%
O=[n+]1cc(-c2ccccc2)n([O-])c2c1CCCCC2 | inconclusive: -37.1%
COc1ccccc1CNC(=O)CCN1C(=O)COc2ccccc21 | inactive: 5.8%
COC(=O)c1ccc(C)c(NC(=O)c2nn(C)c(=O)c3ccccc23)c1 | inconclusive: -36.2%
COc1ccccc1NC(=O)N(Cc1ccc2c(c1)OCO2)Cc1nc2ccccc2c(=O)[nH]1 | inconclusive: -54.2%
O=C(O)c1cc(=O)c2cc(Cl)ccc2o1 | inconclusive: -36.5%
COCCn1c(-c2ccccc2)nc2ccccc21 | active: -113%
NC(=O)C1CCN(C(=O)Nc2ccccc2)CC1 | inactive: -12.9%
COc1ccccc1NC(=O)C1CC(=O)N(c2ccc(F)cc2)C1 (configuration not stated) | inconclusive: -31.4%
COc1ccccc1N=C1SCC(=O)N1c1ccccc1OC | inactive: 43.8%
CCN(CCNC(=O)C1CCN(S(=O)(=O)CC)CC1)c1ccccc1 | inconclusive: -45%
CCn1cc(C2=NC(C(C)C)CO2)c2ccccc21 (configuration not stated) | inconclusive: -31.5%
CCN(C(=O)c1ccc2c(Cl)c3c(nc2c1)CCC3)c1ccc(C)c(C)c1 | inactive: 62.5%
O=C(COc1ccc2c(c1)C(=O)CC1(CCCCC1)O2)NCc1ccccn1 | inconclusive: -45.4%
O=C(N/N=C/c1cn(-c2ccccc2)nc1-c1cc2ccccc2o1)c1cccnc1 | active: -106%
Cc1ccc(S(=O)(=O)/C(C#N)=C/c2c(Oc3ccc(Cl)cc3)nc3c(C)cccn3c2=O)cc1 | inactive: 48.2%
CCOc1ccc(S(=O)(=O)Nc2ccccc2SC)cc1 | inconclusive: -37%
Cc1noc(C(=O)Nc2ccc3c(c2)OCO3)c1Cl | inactive: -5.7%
O=C(O)CCn1[nH]c(=O)ccc1=O | active: -100%
COC(=O)c1nc2n(n1)C(c1ccc([N+](=O)[O-])cc1)C(C(=O)Nc1ccc(Cl)cc1)=C(C)N2 (configuration not stated) | inconclusive: -30.1%

Exported with tabs: 5 of the compounds above.
SMILES	activity change (PNC), negative = inhibition
COC(=O)c1ccc(C)c(NC(=O)c2nn(C)c(=O)c3ccccc23)c1	inconclusive: -36.2%
CCn1cc(C2=NC(C(C)C)CO2)c2ccccc21 (configuration not stated)	inconclusive: -31.5%
CCN(C(=O)c1ccc2c(Cl)c3c(nc2c1)CCC3)c1ccc(C)c(C)c1	inactive: 62.5%
CCOc1ccc(S(=O)(=O)Nc2ccccc2SC)cc1	inconclusive: -37%
Cc1noc(C(=O)Nc2ccc3c(c2)OCO3)c1Cl	inactive: -5.7%
